{
  "source": "patent US20110230431A1",
  "about": "“FOSFOMYCIN/TOBRAMYCIN COMBINATIONS FOR THE TREATMENT AND PREVENTION OF OPHTHALMIC, OTOLOGICAL AND DERMATOLOGICAL INFECTIONS” (Gilead Sciences, Inc., priority 2008, published 2011)",
  "system": "Cell Wall Synthesis in P. aeruginosa ATCC 27853",
  "experiment": "Macromolecular biosynthesis: 3H-N-acetyl-D-glucosamine incorporation",
  "type": "cell-based, Pseudomonas aeruginosa",
  "settings": "1.6 μg/mL (FIG. 6)",
  "method": "Picataway, N.J.) and N-acetyl-D-Glucosamine (^3H-NAG) (GE Healthcare Bio-Sciences), respectively (Baum, E Z, Antimicrob Agents Chernother 2001; 45 (11): 3182-3188). A single colony of P. aeruginosa ATCC 27853 was inoculated into 10 mL of CAMHB and incubated for 16 h, at 37° C., 200 rpm in a shaking water bath. […] At various time points, 100 μl aliquots (triplicate) of culture were removed and added to 100 μl of 20% TCA (VWR) in 96-well flat bottom trays (VWR). Plates were incubated on crushed ice for 60 min to precipitate the incorporated ^3H-precursors. Samples were harvested onto glass fibre filters (GFC) (PerkinElmer; Waltham, Mass.). Filters were washed two times with 35 mL of normal saline to remove unincorporated isotope followed by one wash with 35 mL of 90% ETOH (VWR). Filters were dried under a lamp for 1 h to reduce remaining moisture and then sealed in bags containing 5 mL of scintillation cocktail (Betaplate Scint; PerkinElmer). Counts per minute (CPM) were determined using a Wallac MicroBeta Trilux (PerkinElmer). Mean CPM±standard deviation (SD) were determined for each treatment group. Background counts consisting of a media-only sample were subtracted from the no-drug and antibiotic treatment groups. The percent inhibition of incorporation was determined relative to the no-drug controls. […]",
  "note": "Some of these results come from one statement about several compounds together.",
  "data": [
    {"substance": "tobramycin sulfate", "values": [
      {"measurement": "time to 50% inhibition (T1/2) of cell wall biosynthesis", "value": "> 3", "unit": "h"}
    ]}
  ]
}
